In PubChem BioAssay AID493014 (National Center for Advancing Translational Sciences (NCATS), 2011):
Hit rate of the full screen: of about 340,000 compounds, about 170 (0.05%) were called active. The shares of active, inactive and inconclusive entries below differ from those in the screen. Calls follow the shape of the dose curve; as a rule, active = well fitted inhibition curve with a large enough effect in the signal ratio, with a control signal flat (not every such curve was filed as active); inconclusive = small, poorly fitted or top-dose-only effect, or effect the other way, or a change in a side signal; inactive = flat fitted curve, though single readings scatter; the % refers to the signal ratio. Potencies of inconclusive entries are doubtful fits and often do not repeat.

Test: qHTS Assay to Find Inhibitors of Chronic Active B-Cell Receptor Signaling;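 as to activity change, negative = inhibition: plate controls were basal doxycycline-induced cells for no effect and cells given 10 µM MG132 for full effect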
Conditions: ABC-DLBCL IkBa-CBG/CBR reporter, luminescence ratio (green luciferase fused to IkBa over red control in TMD8 lymphoma cells), 4 h; activity change, negative = inhibition: at 46.1 µM (top of the series) unless noted
Method in brief: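 Cell line TMD8 (human ABC DLBCL), stably expressing tet-inducible CBG68-IkBa fusion and CBR; IMDM/0.5% FBS; cpd up to 46 uM; dox induction, 4 h, 37C/5% CO2; dual luminescence; green/red ratio; MG132 control.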
Potency is read from the fitted curve at half-maximal effect.

SMILES	activity change, negative = inhibition	Potency
COc1cc(-c2cc(C(=O)N3CCCCCC3)c3ccccc3n2)cc(OC)c1OC	inconclusive: -12.6%	–
COc1ccc2nc(NC(=O)CSc3nnc(-c4ccoc4C)n3C)sc2c1	inactive	–
O=C(/C=C/c1cccc([N+](=O)[O-])c1)NC(=S)Nc1ccccc1C(=O)O	–	inconclusive: 4.47 µM [falling, single point]
CCn1c(C)nc2cc(C(=O)N=Nc3c(O)[nH]c4c(C)cc(C)cc34)ccc21	inconclusive: 0.722%	–
O=C(N1CCOCC1)C1(c2ccc(Cl)cc2)CCCC1	inconclusive: 28.2%	–
Cc1ccc(-n2c(N)c(C(=O)NCc3cccnc3)sc2=S)cc1	inconclusive: 4.13%	–
COc1ccc(NC(=O)c2ccc(S(=O)(=O)N3CCOCC3)o2)cc1	inactive	–
O=c1cc(C(F)(F)F)[nH]c2ccc(C(F)(F)F)cc12	–	inconclusive: 35.5 µM [falling, single point]
N#CCc1cc2ccc3cccc4ccc(c1)c2c34	inconclusive: 11.4%	–
CC(=O)Nc1ccc(CN2CCN(CC=C(C)C)C(CCO)C2)cc1 (stereo unspecified)	–	inconclusive: 35.5 µM [falling, single point]
O=C(OCCCCN1C(=O)c2ccccc2C1=O)c1n[nH]c2ccccc12	inconclusive: -22.3%	–
COc1ccc(-n2ncc3c2CC(C)(C)CC3NC(=O)CN2CCOC2=O)cc1 (stereo unspecified)	inactive	–
O=C(COC(=O)c1ccc(S(=O)(=O)N2CCCC2)cc1)Nc1cccc(Br)c1	inconclusive: 3.4%	–
CCC(C(=O)OCC(=O)N1CCN(S(=O)(=O)c2ccc(C)cc2C)CC1)c1ccccc1 (stereo unspecified)	inconclusive: -1.14%	–
O=C(Nc1cc(S(=O)(=O)N2CCOCC2)ccc1O)c1ccc(S(=O)(=O)N2CCCCC2)cc1	inconclusive: 2.07%	–
CCn1c(NCc2cc(Cl)ccc2O)nc2ccccc21	inconclusive: 0.562%	–
COc1ccccc1C(=O)NC(=O)COC(=O)Cc1ccccc1[N+](=O)[O-]	inconclusive: 18%	–
CC(=O)N1c2ccccc2C(=O)OC1c1cccnc1 (stereo unspecified)	inconclusive: -1.51%	–
CNc1nc(Sc2ccc(C)cc2)cc(C(F)(F)F)n1	inconclusive: 5.32%	–
CN(C)CCCNc1oc(-c2ccccc2Cl)nc1S(=O)(=O)c1ccc(F)cc1	inconclusive: 0.399%	–
CCN1CCN(c2nnc(-c3ccc(C)cc3)c3ccccc23)CC1	inconclusive: -1.6%	–
CCOc1cc(C(=O)NCc2ccc3c(c2)CCN3C(=O)c2ccc(F)cc2)cc(OCC)c1OCC	inconclusive: 23%	–
COc1cc2[nH]c(=O)n(CCCCCC(=O)N3CCN(c4ccccn4)CC3)c(=O)c2cc1OC	inactive	–
C[C@H](CO)N1C[C@H](C)[C@@H](CN(C)S(C)(=O)=O)Oc2ccc(NC(=O)NC3CCCCC3)cc2C1=O	inactive	–
Nc1ccc(C(=O)C(=O)c2ccc(N)cc2)cc1	inconclusive: -3.52%	–
COc1ccc(OC)c(N/C(=N\c2nc(C)cc(C)n2)NC(=O)c2ccco2)c1	inconclusive: -11.6%	–

Reformatted field by field: 4 of the compounds above.
Cc1ccc(-n2c(N)c(C(=O)NCc3cccnc3)sc2=S)cc1
  activity change, negative = inhibition: inconclusive: 4.13%
CCC(C(=O)OCC(=O)N1CCN(S(=O)(=O)c2ccc(C)cc2C)CC1)c1ccccc1 (stereo unspecified)
  activity change, negative = inhibition: inconclusive: -1.14%
COc1ccccc1C(=O)NC(=O)COC(=O)Cc1ccccc1[N+](=O)[O-]
  activity change, negative = inhibition: inconclusive: 18%
CC(=O)N1c2ccccc2C(=O)OC1c1cccnc1 (stereo unspecified)
  activity change, negative = inhibition: inconclusive: -1.51%

Following part:

SMILES	activity change, negative = inhibition	Potency
O=C(O)CSc1ncnc2c1sc1nc(-c3ccccc3)c3c(c12)CCC3	–	inconclusive: 4.47 µM [falling, partial curve]
Nc1c(C(=O)NCCN2CCOCC2)c2nc3ccccc3nc2n1CCc1ccccc1F	inconclusive: 21.2%	–
c1csc(Cc2nn3c(-c4n[nH]c5c4CCC5)nnc3s2)c1	inconclusive: 25.8%	–
N#C/C(=C\c1ccc(F)c(F)c1)C(=O)NC1CCCCC1	–	inconclusive: 25.9 µM [rising, single point]
CCn1c(CNc2ccccc2Cl)nnc1SCCN1CCCCC1	inactive	–
COC(=O)C1=C(C)N(Cc2ccccc2)C(=NCCN2CCOCC2)N[C@H]1CCc1ccccc1	inconclusive: -1.48%	–
Cc1ccc([N+](=O)[O-])cc1/C=N/Nc1nnnn1-c1ccccc1	inactive	–
CS(=O)(=O)Nc1ccc(-c2ccc(/C=C3\SC(N)=NC3=O)o2)cc1	–	inconclusive: 14.1 µM [falling, single point]
COc1ccc(Cl)cc1NC(=O)C/C(C)=N/NC(=O)COc1ccc(C)cc1	inactive	–
COC(=O)c1sccc1NC(=O)CSc1ccccc1NS(=O)(=O)c1ccc(Cl)cc1	–	inconclusive: 10 µM [rising, partial curve, poor fit]
OCCN(CCO)c1ccc(C(c2ccccc2Cl)c2ccc(N(CCO)CCO)cc2Cl)c(Cl)c1	–	inconclusive: 14.6 µM [rising, partial curve, poor fit]
COc1ccc(-c2cc(CCC(=O)N3CCN(c4cc(C)ccc4C)CC3)on2)cc1	–	inconclusive: 25.9 µM [falling, single point]
COCCCNC(=O)Cc1c(C)c2cc3c(cc2oc1=O)OC(C)(C)CC3	inconclusive: -0.107%	–
COc1ccc2c(c1OC)C(=O)N(c1ccc(F)cc1)C2	inconclusive: 2.92%	–
O=c1c(Cl)c(NCc2ccc(F)cc2)cnn1C12CC3CC(CC(C3)C1)C2	inconclusive: 13.6%	–
COc1cc(CNC(=O)C2CCCN2S(=O)(=O)c2ccccc2)cc(OC)c1OC (stereo unspecified)	inconclusive: -2.92%	–
CCCn1nnnc1NCc1cc(Br)ccc1OC	inactive	–
O=C(N/N=C/c1cccc(O)c1)c1ccc(COc2ccc3c(c2)CCC3)o1	–	inconclusive: 20.6 µM [falling, partial curve]
C=C1c2ccccc2O[C@H](C(=O)OCC)[C@@H]1C1CCCCC1	inactive	–
COc1cccc(CC2(CO)CCCN(Cc3[nH]c4ccc(C)cc4c3C)C2)c1 (stereo unspecified)	inconclusive: -12.5%	–
c1ccc(CN2CCN(c3nc4ccccc4n4cnnc34)CC2)cc1	inconclusive: 10.9%	–
Cc1ccc2[nH]c(=O)c3cc(C(=O)NCCC(C)C)sc3c2c1	inconclusive: 4.98%	–
Cc1cc(C)cc(N2CCN(C(=O)N3CCOCC3)CC2)c1	inactive	–
CC1(C(=O)O)CCC(C(=O)N2CCCCC2)C1(C)C (stereo unspecified)	–	inconclusive: 17.8 µM [rising, partial curve, poor fit]
COCC(=O)N1CCN(c2cccc(Cl)c2)CC1	inconclusive: -0.299%	–
